{
  "source": "the supplement of paper PMC3334620",
  "note": "Whole data set: some 33,000 sequences, median “E-score (-0.5 to 0.5)” near -0.015, cut for the highest 2% near 0.3. Some of the results follow.",
  "data": [
    {"target": "T1, Abf1 (UniProt P14164)", "T1 sequence": "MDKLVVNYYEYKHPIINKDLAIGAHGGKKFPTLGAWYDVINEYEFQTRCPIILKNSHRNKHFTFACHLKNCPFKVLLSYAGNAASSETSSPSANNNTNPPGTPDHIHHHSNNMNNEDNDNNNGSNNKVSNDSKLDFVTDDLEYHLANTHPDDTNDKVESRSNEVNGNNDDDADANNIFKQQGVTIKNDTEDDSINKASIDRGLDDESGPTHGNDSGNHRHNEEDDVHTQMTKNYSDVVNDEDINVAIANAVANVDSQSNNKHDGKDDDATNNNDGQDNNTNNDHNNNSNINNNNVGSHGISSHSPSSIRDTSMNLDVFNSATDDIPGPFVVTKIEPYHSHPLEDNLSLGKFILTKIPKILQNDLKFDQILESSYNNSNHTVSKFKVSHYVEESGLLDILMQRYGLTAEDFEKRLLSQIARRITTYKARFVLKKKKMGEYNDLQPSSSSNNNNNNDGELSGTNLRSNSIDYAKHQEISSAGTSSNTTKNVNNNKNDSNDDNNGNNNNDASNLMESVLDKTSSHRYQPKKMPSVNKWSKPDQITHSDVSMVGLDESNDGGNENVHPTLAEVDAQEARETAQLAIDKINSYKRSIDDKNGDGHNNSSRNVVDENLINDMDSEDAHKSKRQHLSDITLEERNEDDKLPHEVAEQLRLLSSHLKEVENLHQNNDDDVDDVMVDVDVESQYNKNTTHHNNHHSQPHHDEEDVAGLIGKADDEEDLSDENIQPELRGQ", "assay": "PBM E-score (8-mer binding enrichment) (E-score (-0.5 to 0.5)); higher = stronger / more preferred TF binding", "details": "protein concentration: 200 nM; construct: GST-full length", "method_in_brief": "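The E-score, a modified Wilcoxon-Mann-Whitney statistic, was computed by the Universal PBM Analysis Suite for every ungapped eight-base word pooled with its reverse complement. Scans behind it were normalised with masliner after bound GST-tagged yeast transcription factors were detected with fluorescent anti-GST. The proteins, at about 100-200 nM, had been applied to universal all-10-mer Agilent arrays made double-stranded by primer extension.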", "values": [
      {"sequence": "AGTCTAAT", "PBM E-score": -0.162},
      {"sequence": "GATTGACA", "PBM E-score": 0.171},
      {"sequence": "AGGGTCTG", "PBM E-score": -0.303},
      {"sequence": "ATCAGCAT", "PBM E-score": 0.133},
      {"sequence": "ATGAACCA", "PBM E-score": 0.0351},
      {"sequence": "CGACCTCA", "PBM E-score": 0.00561},
      {"sequence": "CCCTACGA", "PBM E-score": 0.041},
      {"sequence": "AAAAGTTT", "PBM E-score": -0.15},
      {"sequence": "AAGTGGGC", "PBM E-score": -0.0684},
      {"sequence": "ACGAGGAG", "PBM E-score": 0.184},
      {"sequence": "CATGTGTC", "PBM E-score": 0.0875},
      {"sequence": "AATATACC", "PBM E-score": 0.109},
      {"sequence": "ACCATACC", "PBM E-score": -0.287},
      {"sequence": "CCCAGAGA", "PBM E-score": -0.17},
      {"sequence": "GCATAAGC", "PBM E-score": -0.0794},
      {"sequence": "CTGCCCAC", "PBM E-score": -0.039},
      {"sequence": "AGACTCGG", "PBM E-score": -0.286},
      {"sequence": "ACTCCTAC", "PBM E-score": 0.0623},
      {"sequence": "ATACCAAG", "PBM E-score": -0.0413},
      {"sequence": "ACGTCGAC", "PBM E-score": 0.146},
      {"sequence": "ACCACTCT", "PBM E-score": -0.142},
      {"sequence": "CAACATTA", "PBM E-score": -0.00433},
      {"sequence": "CGAGCCCG", "PBM E-score": -0.174},
      {"sequence": "ACTTATCG", "PBM E-score": 0.143},
      {"sequence": "CCGGTTCC", "PBM E-score": -0.286},
      {"sequence": "TGCGAGAA", "PBM E-score": -0.164},
      {"sequence": "CCTACTAA", "PBM E-score": -0.0564},
      {"sequence": "CCCTAACC", "PBM E-score": -0.334},
      {"sequence": "TATGCTGA", "PBM E-score": 0.123},
      {"sequence": "ACTGCAAA", "PBM E-score": 0.108},
      {"sequence": "CCGTGGAA", "PBM E-score": 0.127},
      {"sequence": "CCTGGCAG", "PBM E-score": -0.147},
      {"sequence": "CACTTGTA", "PBM E-score": 0.102},
      {"sequence": "GCAGTGCA", "PBM E-score": -0.0471},
      {"sequence": "ACCACGGA", "PBM E-score": -0.0481},
      {"sequence": "ACTTTTCG", "PBM E-score": 0.0723},
      {"sequence": "TTAGAAAA", "PBM E-score": 0.0889},
      {"sequence": "CTGAGCTA", "PBM E-score": -0.0994},
      {"sequence": "TAACTGAA", "PBM E-score": -0.00678},
      {"sequence": "ATTAACAG", "PBM E-score": 0.0654},
      {"sequence": "ATATTGTG", "PBM E-score": 0.123},
      {"sequence": "CACACAAA", "PBM E-score": -0.00629},
      {"sequence": "GTGCGCGA", "PBM E-score": -0.0176},
      {"sequence": "CAGTTCAC", "PBM E-score": 0.147},
      {"sequence": "AGAGGCAC", "PBM E-score": -0.23},
      {"sequence": "ATGCCACG", "PBM E-score": -0.0938},
      {"sequence": "CAGTATCA", "PBM E-score": 0.0956},
      {"sequence": "GTCAGCTA", "PBM E-score": -0.148},
      {"sequence": "GTATGGCA", "PBM E-score": 0.0908},
      {"sequence": "AAAGTGAC", "PBM E-score": 0.343},
      {"sequence": "CCTAGTCA", "PBM E-score": -0.0597},
      {"sequence": "CTTCGAGA", "PBM E-score": -0.0943},
      {"sequence": "GTCAAAAA", "PBM E-score": 0.239},
      {"sequence": "GACAGTCC", "PBM E-score": 0.0568},
      {"sequence": "ACGACAAG", "PBM E-score": 0.215},
      {"sequence": "GCTTGGCA", "PBM E-score": -0.098},
      {"sequence": "TAAATATA", "PBM E-score": 0.227},
      {"sequence": "ACTGGCCT", "PBM E-score": -0.132},
      {"sequence": "ACGGCTGG", "PBM E-score": 0.0869},
      {"sequence": "CGCTGATA", "PBM E-score": -0.0858},
      {"sequence": "CAGAGTAG", "PBM E-score": -0.205},
      {"sequence": "ATGACATG", "PBM E-score": 0.358},
      {"sequence": "AGGTACGG", "PBM E-score": -0.0413},
      {"sequence": "ACAGGCGG", "PBM E-score": -0.0124},
      {"sequence": "GCCCACAC", "PBM E-score": -0.116},
      {"sequence": "AATAGGGG", "PBM E-score": 0.00756},
      {"sequence": "CGCAGGAG", "PBM E-score": -0.093},
      {"sequence": "ACGGTAGT", "PBM E-score": 0.234},
      {"sequence": "AAGGTGTC", "PBM E-score": 0.0731},
      {"sequence": "CTATGCTC", "PBM E-score": -0.192},
      {"sequence": "ATTAGGGA", "PBM E-score": -0.0627},
      {"sequence": "AAACGCTG", "PBM E-score": -0.124},
      {"sequence": "AGAAAGAT", "PBM E-score": 0.15},
      {"sequence": "CTTCCTTC", "PBM E-score": -0.315},
      {"sequence": "CATACTTC", "PBM E-score": 0.123},
      {"sequence": "GTAACCAC", "PBM E-score": -0.138},
      {"sequence": "TGCGGCAA", "PBM E-score": -0.0355},
      {"sequence": "ATATGTAG", "PBM E-score": -0.00956},
      {"sequence": "AAAACACG", "PBM E-score": 0.0959},
      {"sequence": "CCAGCGGG", "PBM E-score": -0.213},
      {"sequence": "GCTGGCTA", "PBM E-score": -0.288},
      {"sequence": "AGCTTAAC", "PBM E-score": -0.101},
      {"sequence": "AGTTTTCC", "PBM E-score": -0.0477},
      {"sequence": "GCAGTAAA", "PBM E-score": -0.0961},
      {"sequence": "ATGCAGAA", "PBM E-score": 0.0271},
      {"sequence": "CGAATACA", "PBM E-score": 0.00511}
    ]}
  ]
}
